About 25 (0.01%) of roughly 200,000 compounds were called active. The inconclusive results got no clear call from the source; some entries with a clear call stand among them for comparison. Calls come from the whole dose curve; as a rule, active = well fitted inhibition curve with a large enough effect in the signal ratio, with a control signal flat (not every such curve was filed as active); inconclusive = small, poorly fitted or top-dose-only effect, or effect the other way, or a change in a side signal; inactive = flat fitted curve, though single readings scatter; the % refers to the signal ratio. A potency beside an inconclusive call is a rough fit, not a confirmed value.
Test: qHTS Assay for Modulators of Lamin A Splicing
Details: HeLa LMNA splicing GFP/RFP minigene ratio, 48 h; ratio change, negative = inhibition: at 46.1 µM (top of the series) unless noted
Procedure, shortened: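 S3 HeLa cells stably expressing lamin A-EGFP splicing minigene plus DsRed2, 600 cells/well, 48 h compound exposure at 37C. Laser-scanning cytometry; analysed as GFP (500-530 nm)/RFP (575-640 nm) total intensity ratio; 0.5% DMSO vehicle.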
% is set by controls: 0 for no effect and ±100 for the full control effect; potency is the fitted concentration of half-maximal effect.

SMILES	ratio change, negative = inhibition	Potency
Cn1cccc1CC(=O)N/N=C\c1ccccc1	inconclusive: -4.7% [at 46 µM]	
CCn1c(CNC(=O)c2ccco2)nnc1SCC(=O)c1ccccc1	inconclusive: -6.75% [at 46 µM]	
O=C(Nc1nccs1)C1CC(=O)N(Cc2ccco2)C1 (configuration not stated)	inconclusive: 16.3% [at 46 µM]	
COc1ccc(C(=O)CSc2ccccc2C(=O)O)cc1	inactive	
CN(C(=O)c1ccc2c(c1)N(Cc1cccc(Cl)c1)C(=O)c1ccccc1S2(=O)=O)C1CCCCC1	inactive	
O=C(NCc1ccc2c(c1)OCO2)C1CCCN1S(=O)(=O)c1ccc(Cl)cc1 (configuration not stated)	inconclusive: 33.3% [at 46 µM]	
COc1ccc(S(=O)(=O)N2CCC(C(=O)N3CCOCC3)CC2)cc1	inactive	
CSc1cccc(NC(=O)C2CCN(c3nc4ccccc4[nH]3)CC2)c1	inactive	
CN(CC(=O)NC(=O)NCc1ccccc1)Cc1ccc(Cl)c(Cl)c1	inconclusive: -37.6%	
COc1cccc(Cn2c(=O)c(CCc3ccccc3)nc3cncnc32)c1	inconclusive: -6.14%	
C[C@]12CCC3c4ccc(O)cc4CCC3[C@@H]1CCC2=O (some centres not stated)	inactive	
COCCNC(=O)CN(Cc1ccc2c(c1)OCO2)C(=O)CCC(=O)Nc1nccs1	inactive	
CCCCC1=CC2=CC(=O)C(C)(OC(=O)CC)C(=O)C2=CN1C(CO)CO (configuration not stated)	inconclusive: 25.6% [at 9.22 µM]	
O=C(COC(=O)/C=C/c1cccc([N+](=O)[O-])c1)NCCCN1CCCC1=O	inconclusive: 12.2% [at 46 µM]	
O=c1c2sccc2nc(SCc2ccc([N+](=O)[O-])cc2)n1Cc1ccccn1		inconclusive: 35.5 µM [fluorescent, single point]
Cc1cc(C)c2c3c(sc2n1)C1(CCSCC1)C(C#N)=C(N)O3	inactive	
COc1ccc(COCC(CC(C)C)N2CCN(C(=O)c3cccc(C(F)(F)F)c3)CCC2=O)cc1 (configuration not stated)	inconclusive: -23.9%	
NC(=O)OC[C@H](O)COc1ccc(Cl)cc1	inconclusive: -9.63%	
Cc1ccc(O)c(NC(=O)c2cc(-c3ccc(F)cc3)no2)c1		inconclusive: 10 µM [inhibitor, single point]
O=C1c2ccsc2SCCN1Cc1ccccc1Cl	inconclusive: 8.73%	
COc1ccc(-c2cc(CNC(=O)CN(C)Cc3ccccc3)on2)cc1	inconclusive: 12.1%	

SMILES	ratio change, negative = inhibition	Potency
COc1ccc(-c2nc(CNC(=O)Nc3ccccc3)c(C)o2)c(OC)c1	inconclusive: 20.3% [at 46 µM]	
CC1CCCCN1c1cc2c(cc1F)c(=O)c(S(=O)(=O)c1ccccc1)cn2Cc1ccccc1 (configuration not stated)	inactive	
COc1cc(N/N=C(\C)c2ccc(N)cc2)nc(-c2ccccc2)n1		inconclusive: 35.5 µM [falling, single point]
N#Cc1c(-n2cccc2/C=N/O)sc2c1CCCC2	inconclusive: -18.3%	
COc1cccc(Nc2ncccc2C(=O)NCc2ccccc2)c1	inactive	
COc1cc(C(=O)OCC(=O)c2c[nH]c3ccccc23)ccc1OCC(=O)N1CCOCC1	inconclusive: 11.5%	
CCOc1ccc(NS(=O)(=O)c2ccc3c(c2)CCN3C(=O)C2CCC2)cc1		inconclusive: 35.5 µM [fluorescent, single point]
Cn1c(=NC(=O)C2=NNC(=O)CC2)sc2ccccc21		inconclusive: 8.91 µM [activator, partial curve]
CCCNCC1C(Oc2ccc(Cl)cc2Cl)C(=O)N1c1cccc(C)c1C (configuration not stated)	inconclusive: 27.1% [at 9.22 µM]	
CCOC(=O)c1cc(C#N)c(SC)nc1-c1ccccc1	inconclusive: 26.7%	
CCOc1ccc(N2CC(NC(=O)c3ccc(Cl)cc3)CC2=O)cc1 (configuration not stated)		inconclusive: 5.01 µM [activator, partial curve]
CCNC(=O)C12CCC(C)(C(=O)O1)C2(C)C (configuration not stated)	inconclusive: 26.5% [at 46 µM]	
O=C(CCNc1cc(Cl)cc(Cl)c1)c1cccs1	inconclusive: -0.707%	
Cc1cccc(N(CC(=O)NC2CCCC2)C(=O)c2nsc(Cl)c2Cl)c1C		inconclusive: 8.91 µM [activator, partial curve]
O=C(Nc1cc(Cl)cc(Cl)c1)c1cc(S(=O)(=O)NC2CCCC2)ccc1F	inconclusive: 51.6% [at 46 µM]	
COc1ccc(Oc2ncc3ncc(=O)n(C)c3n2)cc1	inactive	
O=C(N/N=C/c1ccc2c(c1)OCO2)c1ccc(COc2cccc3cccnc23)cc1	inconclusive: -39.5% [at 46 µM]	
O=C(CCn1c(=S)[nH]c2ccccc2c1=O)NCC1CCCO1 (configuration not stated)	inactive	
Cc1ccc(C2=NN(C(=O)CSc3nc4ncc(Cl)cc4[nH]3)C(c3ccco3)C2)cc1 (configuration not stated)	inactive	
CCn1nnnc1SCC(=O)Nc1nc2ccc(OC)cc2s1	inactive	
O=C(CNC(=S)N(Cc1ccc(F)cc1)C1CCCCC1)NCC1CCCO1 (configuration not stated)	inactive	

SMILES	ratio change, negative = inhibition	Potency
Cc1cc(C)c2c(=O)[nH]c(SCC(=O)N(C)C)nc2n1	inactive	
COc1ccc(C)cc1NC(=O)CSc1nnc(-c2cc3cccc(OC)c3o2)n1N	inconclusive: 9.2%	
CCOc1ccc(-n2ccnc2SCC(=O)Nc2cc(C)ccc2C)cc1	inconclusive: -15.7% [at 46 µM]	
COc1ccc(OC)c(S(=O)(=O)Nc2ccc(O)c3ccccc23)c1	inconclusive: 98.8%	
CC(=O)Nc1ccc(C#Cc2ccc(NC(C)=O)cc2)cc1	inconclusive: -39.6%	
c1ccc(-c2nnc3n2NC(c2ccc4c(c2)OCO4)S3)cc1 (configuration not stated)	inconclusive: 31.9%	
Cc1ncc[nH]1	inconclusive: 6.25%	
CCCCNC(=S)Nc1ccc(C(F)(F)F)cc1		inconclusive: 12.6 µM [inhibitor, single point]
COc1ccc(NC(=O)CSc2nnc(-c3ccncc3)n2-c2ccccc2)cc1	inconclusive: 7.34% [at 46 µM]	
O=C(CSc1n[nH]c(-c2ccc(F)cc2)n1)N1CCN(c2ccc(F)cc2)CC1	inconclusive: -3.57% [at 46 µM]	
S=c1nc(-c2csc3c2CCCC3)[nH][nH]1		inconclusive: 3.55 µM [inhibitor, single point]
COc1cc(NC(=O)COC(=O)Cc2ccc(-c3ccccc3)cc2)cc(OC)c1	inconclusive: 3.52%	
COc1ccc(N2CC(NC(=O)C3CCCCC3)CC2=O)cc1 (configuration not stated)	inactive	
COc1ccc(C2(CNC(=O)c3cc([N+](=O)[O-])cc([N+](=O)[O-])c3)CCCC2)cc1OC	inconclusive: -4.17%	
CC(=O)c1sc(-c2ccc(Cl)cc2)nc1C	inactive	
Cc1c(C(=O)c2ccc(Cl)cc2Cl)cnc2cc3c(cc12)OCO3		inconclusive: 35.5 µM [fluorescent, single point]
CCC(=O)N1CCN(c2ccc(NC(=O)c3ccc(C#N)cc3F)cc2Cl)CC1	inconclusive: -30.1% [at 46 µM]	
CCOC(=O)c1cnc2ccc(OC)cc2c1NCc1ccccc1		inconclusive: 20 µM [fluorescent, partial curve]
CCCCc1nc2c(c3c1C[C@H](C)OC3)CN(C(=O)Cc1cccc(OC)c1)CC2	inactive: -5.61% [at 9.22 µM]	
COc1ccc(Cc2nnc(NC(=O)C3CCCO3)s2)cc1OC (configuration not stated)	inactive	
O=C(NC1CCCCC1)c1ccc(CNc2nc(=S)[nH]c3ccccc23)cc1	inactive	

Structural class: the compounds so far containing a furan ring, fused or not.
SMILES	ratio change, negative = inhibition	Potency
CCn1c(CNC(=O)c2ccco2)nnc1SCC(=O)c1ccccc1	inconclusive: -6.75% [at 46 µM]	
O=C(Nc1nccs1)C1CC(=O)N(Cc2ccco2)C1 (configuration not stated)	inconclusive: 16.3% [at 46 µM]	
Cc1ccc(C2=NN(C(=O)CSc3nc4ncc(Cl)cc4[nH]3)C(c3ccco3)C2)cc1 (configuration not stated)	inactive	
COc1ccc(C)cc1NC(=O)CSc1nnc(-c2cc3cccc(OC)c3o2)n1N	inconclusive: 9.2%	

Single entries from above.
Entry of Cc1c(C(=O)c2ccc(Cl)cc2Cl)cnc2cc3c(cc12)OCO3 under Potency: inconclusive: 35.5 µM [fluorescent, single point]
Entry of Cc1cc(C)c2c(=O)[nH]c(SCC(=O)N(C)C)nc2n1 under ratio change, negative = inhibition: inactive

(next part)

SMILES	ratio change, negative = inhibition	Potency
COc1ccc(Cl)cc1NC(=S)N1CCCC1	inconclusive: 31.1% [at 46 µM]	
O=C(COC(=O)c1cc(-c2ccco2)nc2ccccc12)NCc1ccccc1	inactive	
O=C(Cc1ccc(Cl)cc1)Nc1ccncc1	inconclusive: 24.7% [at 46 µM]	
Cc1c(Cl)cccc1NC(=O)C(=O)NCCc1csc(-c2ccc(C(F)(F)F)cc2)n1	inactive	
O=C(/C=C/c1cccc([N+](=O)[O-])c1)NCCSCc1ccco1	inconclusive: 3.94%	
Cc1ccc(S(=O)(=O)N/N=C\c2cccnc2)cc1	inconclusive: -12% [at 0.0737 µM]	
CCCCN(CCCC)/C(N)=N/c1nc(C)cc(C)n1	inconclusive: -7.42% [at 46 µM]	
COC(=O)C1=C(C)N(CCc2cc(OC)c(OC)c(OC)c2)C(=O)N[C@H]1c1ccc(Br)cc1		inconclusive: 35.5 µM [fluorescent, single point]
Cc1cc(C)n(-c2nnc(NCc3ccc(Cl)cc3)nn2)n1	inconclusive: -30.4% [at 46 µM]	
COc1ccc(OCC(=O)N/N=C(\C)CC(=O)Nc2ccc(OC)cc2[N+](=O)[O-])cc1	inconclusive: 40% [at 9.22 µM]	
C=CCn1c(SC(C)C(=O)NCc2ccc3c(c2)OCO3)nnc1C1CCCCC1 (configuration not stated)	inconclusive: 4.3%	
NC(=O)N1c2ccccc2C=Cc2ccccc21	inconclusive: -3.63%	
CCCOc1ccc(C2C(=O)N(C3CCC(C)CC3)CC(=O)N2CCc2ccccc2)cc1OC (configuration not stated)	inactive	
Cc1ccc(C2/C(=C(/O)c3ccc(Cl)cc3)C(=O)C(=O)N2CC2CCCO2)o1 (configuration not stated)	inactive	
O=C(Nc1ccccc1C(F)(F)F)c1ccc(F)c(S(=O)(=O)N2CCc3ccccc3C2)c1	inactive	
Cn1cccc1CC(=O)NNC(=S)NC(=O)c1ccccc1Br	inconclusive: -36.2% [at 46 µM]	
COc1cc(/C=C/C(=O)N2C(=O)c3cccc(N)c3C2=O)cc(OC)c1OC	inconclusive: -3.33%	
O=C1Nc2ccccc2/C1=N/c1sc2c(c1C(=O)NCCc1ccccc1)CCCC2		inconclusive: 15.8 µM [inhibitor, single point]
O=C(Cn1cnc2sc(-c3ccccc3)cc2c1=O)NCc1ccco1	inconclusive: -33.2%	

Source: PubChem BioAssay AID1487 (National Center for Advancing Translational Sciences (NCATS), 2009)
